Measurements as given in patent US7132012B2, “Phthalocyanine compound, ink, ink jet recording method and image forming method” (Fuji Photo Film Co., Ltd., priority 2004, dated 2006).

Test: Color toner OHP image: transparency (spectral transmittance at 450 nm)

Row | Compound | Transparency
1 | C.I. Solvent Blue 70 | x (less than 70%, x)
2 | C.I. Solvent Blue 38 | x (less than 70%, x)
3 | Cc1ccc(Nc2ccc(Nc3ccc(C)cc3)c3c2C(=O)c2c(Nc4ccc(C)cc4)ccc(Nc4ccc(C)cc4)c2C3=O)cc1 [Comparative dye 6] | Δ (70 to less than 80%, Δ)
4 | CNc1ccc(O)c2c1C(=O)c1c(O)ccc(NC)c1C2=O [Comparative dye 5] | Δ (70 to less than 80%, Δ)
